PubChem BioAssay AID2685 (National Center for Advancing Translational Sciences (NCATS), 2010)
The list shows a part of the results. Shown are side measurements of this screen, not its main read-out; they come without a call. Compounds called inactive in the main read-out are mostly missing here. Words in brackets tell the shape of the fitted curve; partial curves, single points and poor fits give uncertain potencies.

Experiment: qHTS Assay for Lipid Storage Modulators in Drosophila S3 Cells;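 for cell number change: cells counted by Cell Tracker Red CMTPX staining in the red channel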
Details: BODIPY lipid droplet fluorescence, 18-24 h; for cell number change: measured here: cell count max response, cells fed with added oleic acid
How it was run: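 Drosophila S3 cells got compounds at several concentrations plus oleic acid (400 uM solution). Laser-scanning cytometry with 488 nm excitation read lipid droplets at 500-530 nm and cells at 575-640 nm. Percent activity was relative to 20 uM Triacsin C.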

[1] = measured here: cell number channel AC50, cells fed with added oleic acid
[2] = measured here: lipid fluorescence (Fed channel) AC50, cells fed with added oleic acid

SMILES	cell number change [%]	AC50 [1]	AC50 [2]
Cc1ccc(CNS(=O)(=O)c2ccc(-c3cnc(C4CC4)o3)cc2)cc1	-34.6	29.1 µM [falling, single point]	
O=C(CC1=NCCNC(c2ccccc2)C1)c1ccccc1O (stereo unspecified)	-28.5		32.6 µM [falling, single point]
CC(=O)N1CC(C)Oc2ccc(S(=O)(=O)NC(CC(=O)O)c3ccc(C)cc3C)cc21 (stereo unspecified)	-2.09		29.1 µM [rising, single point]
CC(C)CCn1c(O)c(N=NC(=O)Cn2ccc(C(F)(F)F)n2)c2ccccc21	-1.97		1.84 µM [rising, full curve, poor fit]
CCCCCc1cc(=O)oc2c(C(CCN3CCCC(C)C3)c3cc(OC)c(OC)c(OC)c3)c(OC)cc(OC)c12 (stereo unspecified)	-72.2	29.1 µM [falling, single point]	29.1 µM [falling, partial curve]
Cc1cc([N+](=O)[O-])ccc1NC(=O)c1sc2ncn(CC(=O)N3CCOCC3)c(=O)c2c1C	12.5	0.326 µM [rising, full curve]	0.461 µM [rising, full curve]
CC1CCCCC1NC(=O)COc1ncnc2sccc12 (stereo unspecified)	-18.3		1.84 µM [falling, partial curve, poor fit]
CC(C)[C@H](NC(=O)c1ccc(F)cc1)C(=O)N(C)Cc1cccs1	0.55		
O=C(c1ccccc1)c1cccn1CC(=O)N1CCN(c2ccccc2)CC1	29.1		29.1 µM [rising, single point]
Cc1nc2ccc(NC(=O)c3ccc(N4C(=O)CCC4=O)cc3)cc2s1	-66	3.66 µM [falling, full curve, poor fit]	6.51 µM [falling, partial curve, poor fit]
CC(C)n1nnnc1SCC(=O)Nc1ccccc1N1CCOCC1		5.17 µM [rising, single point]	10.3 µM [rising, partial curve]
CCN(CC(=O)Nc1cc(Cl)ccc1C)C(=O)c1ccc(=O)n(Cc2ccccc2)n1	-43.1		
Cc1ccc(C)c(NC(=S)NNC(=O)c2csc(C(C)C)c2)c1	-2.14		4.61 µM [rising, single point]
COc1ccc(CCNC(=O)CSc2ccc3ccccc3c2)cc1OC	-56.2	10.3 µM [falling, partial curve]	10.3 µM [falling, partial curve]
CC(=O)C(CC(=O)N1CCCc2ccccc21)C(=O)Nc1ccc(F)cc1 (stereo unspecified)	-10.2	0.00651 µM [falling, full curve, poor fit]	0.461 µM [falling, full curve]
Cc1ccc(S(=O)(=O)c2c(N)n(C)c3nc4ccccc4nc23)cc1	-2.86		2.31 µM [rising, partial curve]
Cc1nnc(NC(=O)C(C)Sc2nnc(CNC(=O)c3ccccc3F)n2C)s1 (stereo unspecified)	-2.01		
CC1CCCC(C)N1C(=O)CSc1nc2ncnc(N)c2[nH]1 (stereo unspecified)	39	1.3 µM [rising, partial curve, poor fit]	5.17 µM [rising, partial curve]
CCC(CC)C(=O)Nc1c(C(=O)N2CCN(c3ccccc3)CC2)oc2ccccc12	79.9	13 µM [rising, partial curve]	29.1 µM [rising, single point]
COc1ccc(C2C(C(C)=O)=C(C)N=c3s/c(=C\c4cc(C)n(C)c4C)c(=O)n32)c(OC)c1 (stereo unspecified)	-99.9	2.91 µM [falling, full curve]	2.31 µM [falling, full curve]

A draw from above in order of number of heavy atoms, descending:
SMILES	cell number change [%]	AC50 [1]	AC50 [2]
Cc1cc([N+](=O)[O-])ccc1NC(=O)c1sc2ncn(CC(=O)N3CCOCC3)c(=O)c2c1C	12.5	0.326 µM [rising, full curve]	0.461 µM [rising, full curve]
Cc1nnc(NC(=O)C(C)Sc2nnc(CNC(=O)c3ccccc3F)n2C)s1 (stereo unspecified)	-2.01		
CC1CCCCC1NC(=O)COc1ncnc2sccc12 (stereo unspecified)	-18.3		1.84 µM [falling, partial curve, poor fit]

Additional results follow:

SMILES	cell number change [%]	AC50 [1]	AC50 [2]
CC1Cc2ccccc2N1Cc1ccc([N+](=O)[O-])cc1 (stereo unspecified)	22.9		0.13 µM [falling, single point]
CCc1cccc(NC(=O)C2CCCN2S(=O)(=O)c2ccc3c(c2)CC(C)N3C(C)=O)c1 (stereo unspecified)	-0.576		1.64 µM [rising, partial curve, poor fit]
O=C(NCCc1ccc(F)cc1)c1ccc2nccnc2c1	1.94		0.731 µM [falling, single point]
Cc1ccccc1NC(=O)c1ccc(NC(=O)c2ccco2)cc1		2.31 µM [rising, partial curve]	
O=C(CNC(=O)c1nc[nH]c1C(=O)N1CCc2ccccc2C1)OCc1ccccc1	26.3		0.116 µM [rising, full curve, poor fit]
N#CC1=C(N)Oc2n[nH]c(-c3cccs3)c2C1C1CCCCC1 (stereo unspecified)	-88		29.1 µM [falling, single point]
COc1cccc(NC(=O)CSc2nnc(-c3ccoc3C)n2C)c1	-2.38		
C=CCn1c(=O)[nH]c2cc(C(=O)N3CCN(c4ccc(C(C)=O)cc4)CC3)ccc2c1=O	7.73	3.66 µM [rising, partial curve]	
Cc1ccc(SC(C)c2nc(-c3ccncc3)no2)cc1 (stereo unspecified)	51.5	8.2 µM [rising, partial curve]	6.51 µM [rising, single point]
COc1ccc(Br)cc1S(=O)(=O)NCc1ccccn1	-0.0652		
O=[N+]([O-])CC(c1ccc(F)cc1)c1c[nH]c2ccccc12 (stereo unspecified)	-19.7		
Cc1ccc(O)c(-c2cc(-c3ccccc3[N+](=O)[O-])[nH]n2)c1	-29		23.1 µM [falling, single point]
CC(Cc1ccccc1)C(=O)Nc1ccc(Br)cc1 (stereo unspecified)	-30.4	18.4 µM [falling, single point]	29.1 µM [falling, single point]
COC(=O)c1cc(S(=O)(=O)NCCc2ccc(C)cc2)c[nH]1	33.8	25.9 µM [rising, partial curve]	
O=c1c2ccc(Cl)cc2nc2n1CC/C2=C\c1cccc(O)c1	61	29.1 µM [rising, single point]	5.8 µM [rising, full curve]
Cc1nc2nc[nH]n2c(=O)c1NS(C)(=O)=O	-14.4		3.26 µM [falling, partial curve, poor fit]
O=C(Nc1ccc(F)cc1)c1ccccc1NS(=O)(=O)N1CCCC1	-11.1		0.13 µM [rising, full curve, poor fit]
COc1ccc(-c2cc(C(=O)N3CC(C)CC(C)C3)c3ccccc3n2)cc1 (stereo unspecified)	-25	0.116 µM [falling, full curve, poor fit]	
Cn1c(=O)c2c(nc(CN3CCN(C(=O)c4ccco4)CC3)n2CCc2ccccc2)n(C)c1=O	19.1	0.517 µM [rising, full curve, poor fit]	
C=CCc1cccc(/C=N/c2nc3ccccc3n2CC)c1O	22.5		32.6 µM [rising, single point]

SMILES	cell number change [%]	AC50 [1]	AC50 [2]
Cc1ccc2c(c1)N(C(=O)CCC(=O)N1CCN(c3ccccn3)CC1)CC(C)O2 (stereo unspecified)	16.7		18.4 µM [falling, single point]
CCOc1ncccc1C(=O)Nc1nnc(C)s1	15.6		
COc1ccc(C(=O)NCC2(c3ccc(OC)c(OC)c3)CCCC2)c(OC)c1	3.85		0.58 µM [falling, single point]
O=C(NC(=S)Nc1ccccc1N1CCOCC1)c1cccc([N+](=O)[O-])c1	-41.8	29.1 µM [falling, single point]	9.2 µM [falling, partial curve]
CCn1cc(C2=NC(C)(C)CO2)c2ccccc21	24.9		14.6 µM [falling, partial curve]
Cn1cccc1C(=O)NCCc1ccc(Cl)cc1	21.1		29.1 µM [rising, single point]
O=C(c1cc(-c2ccccc2)on1)N1CCc2ccccc2C1	15.8		7.31 µM [rising, single point]
COc1ccc(OCC(=O)Nc2ccc(Cl)cc2)cc1	14		
CCOC(=O)C(NC(=O)NCc1ccc(F)cc1)(OCC)C(F)(F)F (stereo unspecified)	74.4		20.6 µM [rising, partial curve]
c1ccc(Cn2c[n+](Cc3ccccc3)c3ccccc32)cc1	-1.13		29.1 µM [falling, single point]
CC(=O)Nc1ccc(S(=O)(=O)NCC(=O)OCC(=O)c2cc(C)n(-c3ccc4c(c3)OCO4)c2C)cc1			18.4 µM [rising, single point]
Cc1ccc(-c2csc3ncnc(N4CCN(Cc5ccccc5)CC4)c23)cc1	-2.1		32.6 µM [rising, single point]
O=S(=O)(c1c(F)cccc1F)N1CCN(C(=S)NCc2ccc3c(c2)OCO3)CC1		0.731 µM [rising, single point]	
Cc1c(C)c2ccc(OCC(=O)Nc3nccs3)cc2oc1=O	-8.58		9.2 µM [falling, partial curve]
O=C(CN1C(=O)COc2ccccc21)NCCC1=CCCCC1			2.31 µM [rising, single point]
Nc1ccc2c(c1)COC2=O	-4.55		29.1 µM [falling, partial curve, poor fit]
Cc1ccc(-c2nc(NC(=O)CSc3ncn[nH]3)ns2)cc1	13.2		0.259 µM [falling, full curve, poor fit]
Cc1ccc(NC(=O)COc2ncnc3c(Cl)cc(Cl)cc23)cc1[N+](=O)[O-]	-12.8		0.13 µM [falling, full curve, poor fit]
